In the supplement of paper PMC6411743:
± gives the standard deviation of the averaged measurements. The list shows a part of the results, in another mix than the full data.

By UniProt entry, the sequences of proteins in these tests, tags left out. Where a name states a change or a piece, a line headed by the entry shows the natural chain unless it says otherwise.
UniProt O15182: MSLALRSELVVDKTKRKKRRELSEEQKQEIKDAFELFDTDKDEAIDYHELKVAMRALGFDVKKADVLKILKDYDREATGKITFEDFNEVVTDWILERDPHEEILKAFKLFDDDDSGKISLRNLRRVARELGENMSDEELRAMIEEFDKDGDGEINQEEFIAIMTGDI
UniProt Q15843, whole entry: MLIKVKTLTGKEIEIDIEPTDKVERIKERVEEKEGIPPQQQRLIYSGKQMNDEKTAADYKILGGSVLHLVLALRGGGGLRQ
UniProt Q9UJX4, whole entry: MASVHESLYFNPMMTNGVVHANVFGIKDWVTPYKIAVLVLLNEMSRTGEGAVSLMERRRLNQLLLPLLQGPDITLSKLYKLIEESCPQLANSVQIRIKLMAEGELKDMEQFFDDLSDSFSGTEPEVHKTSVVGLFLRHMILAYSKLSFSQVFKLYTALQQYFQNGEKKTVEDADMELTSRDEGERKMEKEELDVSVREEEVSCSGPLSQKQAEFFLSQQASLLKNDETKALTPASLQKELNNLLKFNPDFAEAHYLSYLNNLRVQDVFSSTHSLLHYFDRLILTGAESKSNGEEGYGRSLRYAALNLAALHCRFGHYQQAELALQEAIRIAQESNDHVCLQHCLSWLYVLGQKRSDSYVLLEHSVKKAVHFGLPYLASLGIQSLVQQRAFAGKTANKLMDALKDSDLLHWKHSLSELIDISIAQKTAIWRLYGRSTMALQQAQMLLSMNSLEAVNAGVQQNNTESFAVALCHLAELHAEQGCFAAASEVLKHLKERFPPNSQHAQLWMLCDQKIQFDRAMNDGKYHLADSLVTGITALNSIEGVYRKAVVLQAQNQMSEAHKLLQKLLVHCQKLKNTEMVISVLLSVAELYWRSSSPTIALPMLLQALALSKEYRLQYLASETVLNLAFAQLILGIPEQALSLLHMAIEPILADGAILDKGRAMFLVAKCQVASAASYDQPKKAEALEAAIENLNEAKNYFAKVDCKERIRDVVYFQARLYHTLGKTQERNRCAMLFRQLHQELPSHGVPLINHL
UniProt Q9Y315: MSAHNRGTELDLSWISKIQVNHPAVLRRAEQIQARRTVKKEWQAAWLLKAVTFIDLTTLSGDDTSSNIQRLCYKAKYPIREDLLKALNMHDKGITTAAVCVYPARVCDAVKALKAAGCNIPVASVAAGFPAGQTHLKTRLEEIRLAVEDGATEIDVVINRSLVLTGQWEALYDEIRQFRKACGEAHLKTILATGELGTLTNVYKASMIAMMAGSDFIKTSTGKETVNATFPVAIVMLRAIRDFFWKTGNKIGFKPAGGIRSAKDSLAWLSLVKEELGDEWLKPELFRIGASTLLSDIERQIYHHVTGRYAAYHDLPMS
UniProt Q6L8Q7: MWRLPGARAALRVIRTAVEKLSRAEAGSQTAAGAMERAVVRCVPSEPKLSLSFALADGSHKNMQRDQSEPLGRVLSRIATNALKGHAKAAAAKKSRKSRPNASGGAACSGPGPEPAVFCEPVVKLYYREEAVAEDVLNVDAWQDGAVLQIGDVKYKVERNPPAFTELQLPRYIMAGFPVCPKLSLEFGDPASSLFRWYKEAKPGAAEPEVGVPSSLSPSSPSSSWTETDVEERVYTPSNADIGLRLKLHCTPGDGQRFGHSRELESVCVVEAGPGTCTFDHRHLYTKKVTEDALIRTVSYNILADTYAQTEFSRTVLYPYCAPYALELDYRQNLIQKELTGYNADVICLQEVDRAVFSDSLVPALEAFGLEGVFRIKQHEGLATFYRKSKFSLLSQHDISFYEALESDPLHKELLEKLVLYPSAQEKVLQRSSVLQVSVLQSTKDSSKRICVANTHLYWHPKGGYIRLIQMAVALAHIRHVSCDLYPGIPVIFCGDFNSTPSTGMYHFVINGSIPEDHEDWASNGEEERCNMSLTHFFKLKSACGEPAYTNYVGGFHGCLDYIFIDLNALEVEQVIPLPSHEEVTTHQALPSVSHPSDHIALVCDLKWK
UniProt Q9NXR8, whole entry: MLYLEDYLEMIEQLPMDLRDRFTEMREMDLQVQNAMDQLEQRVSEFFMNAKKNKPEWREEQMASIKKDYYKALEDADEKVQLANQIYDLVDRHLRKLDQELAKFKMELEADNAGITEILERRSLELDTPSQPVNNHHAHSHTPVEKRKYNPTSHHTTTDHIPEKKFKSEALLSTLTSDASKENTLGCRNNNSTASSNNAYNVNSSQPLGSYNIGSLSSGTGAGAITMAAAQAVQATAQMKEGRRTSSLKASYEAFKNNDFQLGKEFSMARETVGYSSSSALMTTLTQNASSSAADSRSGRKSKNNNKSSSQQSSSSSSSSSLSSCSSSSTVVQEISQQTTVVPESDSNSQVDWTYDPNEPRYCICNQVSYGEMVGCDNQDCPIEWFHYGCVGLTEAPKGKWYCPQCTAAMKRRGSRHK
UniProt P11802: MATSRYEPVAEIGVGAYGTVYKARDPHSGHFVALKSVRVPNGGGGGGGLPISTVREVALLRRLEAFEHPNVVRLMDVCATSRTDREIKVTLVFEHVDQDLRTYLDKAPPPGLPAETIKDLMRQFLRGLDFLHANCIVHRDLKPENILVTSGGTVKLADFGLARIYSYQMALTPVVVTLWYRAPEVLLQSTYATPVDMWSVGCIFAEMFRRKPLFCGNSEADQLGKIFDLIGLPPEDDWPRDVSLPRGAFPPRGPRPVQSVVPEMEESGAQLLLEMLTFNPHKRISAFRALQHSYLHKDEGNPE
UniProt Q9NQV6: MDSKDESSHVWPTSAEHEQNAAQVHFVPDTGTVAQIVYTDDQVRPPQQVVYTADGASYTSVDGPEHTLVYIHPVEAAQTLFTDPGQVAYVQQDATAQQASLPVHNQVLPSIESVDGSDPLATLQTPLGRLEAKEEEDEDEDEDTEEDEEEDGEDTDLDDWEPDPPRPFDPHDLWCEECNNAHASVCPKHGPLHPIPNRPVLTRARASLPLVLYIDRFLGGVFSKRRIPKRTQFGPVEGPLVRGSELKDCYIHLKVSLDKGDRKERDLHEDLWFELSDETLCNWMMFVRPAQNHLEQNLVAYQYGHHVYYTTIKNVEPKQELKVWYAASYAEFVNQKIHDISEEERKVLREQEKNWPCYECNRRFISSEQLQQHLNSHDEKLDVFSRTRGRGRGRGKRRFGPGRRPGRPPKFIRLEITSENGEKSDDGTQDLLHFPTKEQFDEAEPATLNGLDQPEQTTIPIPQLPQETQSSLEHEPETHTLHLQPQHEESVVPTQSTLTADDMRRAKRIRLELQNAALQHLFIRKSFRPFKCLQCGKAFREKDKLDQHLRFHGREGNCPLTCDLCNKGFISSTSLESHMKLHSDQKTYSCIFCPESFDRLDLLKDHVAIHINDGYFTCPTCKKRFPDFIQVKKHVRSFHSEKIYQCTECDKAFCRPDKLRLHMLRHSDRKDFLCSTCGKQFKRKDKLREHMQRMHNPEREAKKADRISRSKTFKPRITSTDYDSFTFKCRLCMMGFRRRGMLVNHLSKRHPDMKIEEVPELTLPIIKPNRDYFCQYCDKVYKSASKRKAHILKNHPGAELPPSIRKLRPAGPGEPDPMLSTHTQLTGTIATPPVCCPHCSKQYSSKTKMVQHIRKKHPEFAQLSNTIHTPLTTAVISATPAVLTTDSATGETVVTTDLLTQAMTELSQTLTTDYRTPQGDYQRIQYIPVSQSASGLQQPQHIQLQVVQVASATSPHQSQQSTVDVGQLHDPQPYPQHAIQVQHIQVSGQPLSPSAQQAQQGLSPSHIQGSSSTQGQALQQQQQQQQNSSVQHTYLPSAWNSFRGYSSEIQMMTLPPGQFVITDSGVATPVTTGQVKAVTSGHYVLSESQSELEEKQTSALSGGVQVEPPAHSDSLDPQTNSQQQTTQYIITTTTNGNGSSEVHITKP
UniProt P27348: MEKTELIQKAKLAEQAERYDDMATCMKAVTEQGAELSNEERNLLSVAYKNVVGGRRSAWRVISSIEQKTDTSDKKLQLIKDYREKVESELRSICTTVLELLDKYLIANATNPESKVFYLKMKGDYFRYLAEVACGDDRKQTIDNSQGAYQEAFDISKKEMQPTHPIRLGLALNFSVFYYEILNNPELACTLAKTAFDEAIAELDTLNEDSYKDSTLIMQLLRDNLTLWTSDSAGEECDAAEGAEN
UniProt Q8IWZ3: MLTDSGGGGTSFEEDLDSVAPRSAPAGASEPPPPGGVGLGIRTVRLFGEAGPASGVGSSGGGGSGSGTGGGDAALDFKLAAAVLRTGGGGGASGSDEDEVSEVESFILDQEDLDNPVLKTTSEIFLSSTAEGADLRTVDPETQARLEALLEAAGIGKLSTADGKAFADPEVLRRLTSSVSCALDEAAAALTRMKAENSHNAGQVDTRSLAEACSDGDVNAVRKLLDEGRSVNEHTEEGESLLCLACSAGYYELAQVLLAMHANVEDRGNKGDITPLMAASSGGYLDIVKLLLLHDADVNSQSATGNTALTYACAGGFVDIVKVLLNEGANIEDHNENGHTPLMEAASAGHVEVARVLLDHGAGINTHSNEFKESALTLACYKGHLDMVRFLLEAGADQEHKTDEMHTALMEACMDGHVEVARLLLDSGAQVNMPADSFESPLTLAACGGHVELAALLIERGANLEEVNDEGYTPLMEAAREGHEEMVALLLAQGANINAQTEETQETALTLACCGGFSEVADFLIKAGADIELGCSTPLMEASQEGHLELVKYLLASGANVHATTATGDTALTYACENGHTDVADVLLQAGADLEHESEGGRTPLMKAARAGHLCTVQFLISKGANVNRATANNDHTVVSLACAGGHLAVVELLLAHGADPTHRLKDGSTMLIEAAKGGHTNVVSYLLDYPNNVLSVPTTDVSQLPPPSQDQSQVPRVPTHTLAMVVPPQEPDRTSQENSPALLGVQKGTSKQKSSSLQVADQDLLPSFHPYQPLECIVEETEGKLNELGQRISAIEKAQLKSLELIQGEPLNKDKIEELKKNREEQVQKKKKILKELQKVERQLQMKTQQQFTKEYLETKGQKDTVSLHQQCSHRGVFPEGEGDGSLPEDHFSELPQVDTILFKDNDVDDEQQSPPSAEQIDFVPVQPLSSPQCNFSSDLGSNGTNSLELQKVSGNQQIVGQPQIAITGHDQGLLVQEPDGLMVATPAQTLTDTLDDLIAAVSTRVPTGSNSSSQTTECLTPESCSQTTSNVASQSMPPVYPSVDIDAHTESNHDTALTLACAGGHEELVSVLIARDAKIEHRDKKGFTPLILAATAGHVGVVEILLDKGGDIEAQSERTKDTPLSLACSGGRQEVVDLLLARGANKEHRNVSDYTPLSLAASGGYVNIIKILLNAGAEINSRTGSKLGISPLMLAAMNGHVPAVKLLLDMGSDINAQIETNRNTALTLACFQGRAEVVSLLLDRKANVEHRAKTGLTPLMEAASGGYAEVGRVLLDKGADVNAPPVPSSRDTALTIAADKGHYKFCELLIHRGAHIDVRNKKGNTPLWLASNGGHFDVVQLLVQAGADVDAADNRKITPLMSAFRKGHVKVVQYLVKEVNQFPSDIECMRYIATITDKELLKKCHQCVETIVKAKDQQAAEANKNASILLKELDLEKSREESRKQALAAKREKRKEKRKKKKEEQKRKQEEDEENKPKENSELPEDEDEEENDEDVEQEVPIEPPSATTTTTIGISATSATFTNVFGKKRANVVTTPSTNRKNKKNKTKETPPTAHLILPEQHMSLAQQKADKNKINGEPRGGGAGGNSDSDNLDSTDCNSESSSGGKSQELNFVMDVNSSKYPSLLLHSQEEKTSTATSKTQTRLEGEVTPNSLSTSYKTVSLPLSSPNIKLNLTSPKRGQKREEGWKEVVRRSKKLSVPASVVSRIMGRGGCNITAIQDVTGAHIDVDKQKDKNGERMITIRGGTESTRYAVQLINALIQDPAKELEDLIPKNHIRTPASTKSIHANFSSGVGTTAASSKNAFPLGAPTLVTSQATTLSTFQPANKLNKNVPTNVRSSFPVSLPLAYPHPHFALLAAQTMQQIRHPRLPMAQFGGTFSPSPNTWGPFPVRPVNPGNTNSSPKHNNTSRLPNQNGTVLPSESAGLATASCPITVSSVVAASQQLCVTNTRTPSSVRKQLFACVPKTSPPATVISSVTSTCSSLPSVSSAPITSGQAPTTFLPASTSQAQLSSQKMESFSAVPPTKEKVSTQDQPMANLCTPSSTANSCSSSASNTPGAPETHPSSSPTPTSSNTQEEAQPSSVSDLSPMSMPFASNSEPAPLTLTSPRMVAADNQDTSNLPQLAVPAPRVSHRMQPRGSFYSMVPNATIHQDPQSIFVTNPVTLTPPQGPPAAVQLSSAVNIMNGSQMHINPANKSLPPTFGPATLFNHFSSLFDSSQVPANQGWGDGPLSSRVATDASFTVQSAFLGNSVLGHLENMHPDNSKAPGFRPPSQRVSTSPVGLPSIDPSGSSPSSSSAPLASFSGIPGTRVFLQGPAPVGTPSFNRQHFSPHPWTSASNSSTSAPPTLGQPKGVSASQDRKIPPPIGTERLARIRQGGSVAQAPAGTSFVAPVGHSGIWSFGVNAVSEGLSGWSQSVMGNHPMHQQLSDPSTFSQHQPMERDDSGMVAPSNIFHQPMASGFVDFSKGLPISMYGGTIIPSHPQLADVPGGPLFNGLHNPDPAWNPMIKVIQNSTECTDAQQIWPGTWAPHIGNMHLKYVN

Compound: Nc1ncnc2c1ncn2[C@@H]1O[C@H](COP(=O)(O)OP(=O)(O)NP(=O)(O)O)[C@@H](O)[C@H]1O [adenylyl imidodiphosphate]
Assay: NP40-soluble protein abundance relative to vehicle (solubility fold change) (ratio); higher = more soluble protein in presence of AMP-PNP
How it was run: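 Values are fold changes against the detergent-processed vehicle, based on vsn-normalised intensities. Jurkat crude lysate was treated at eight concentrations from 0.1 to 10 mM (10 min at room temperature, then 3 min at 37 °C), solubilised with 0.8% NP40 and benzonase, ultracentrifuged and analysed by TMT-labelled LC-MS/MS over three independent experiments.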

| Target | NP40-soluble protein abundance (concentration: 1mM) | NP40-soluble protein abundance (concentration: 2mM) | NP40-soluble protein abundance (concentration: 4mM) | NP40-soluble protein abundance (concentration: 6mM) | NP40-soluble protein abundance (concentration: 8mM) | NP40-soluble protein abundance (concentration: 10mM) |
| --- | --- | --- | --- | --- | --- | --- |
| E5RJF8 and related entries (UniProt O15182) | 1.02 ± 0.019 | 1.02 ± 0.024 | 0.998 ± 0.011 | 0.9911 ± 0.0075 | 0.992 ± 0.015 | 1.01 ± 0.022 |
| E9PL57 and related entries (UniProt Q15843) | 0.955 ± 0.05 | 0.989 ± 0.007 | 0.881 ± 0.11 | 0.8854 ± 0.0082 | 0.885 ± 0.0097 | 0.812 ± 0.031 |
| F5H0F9 and related entries (UniProt Q9UJX4) | 0.987 ± 0.014 | 0.919 ± 0.11 | 0.973 ± 0.04 | 0.986 ± 0.023 | 0.977 ± 0.067 | 0.96 ± 0.07 |
| E9PLL0 and related entries (UniProt Q96EY5) | 1.04 ± 0.014 | 1.05 ± 0.042 | 1.08 ± 0.018 | 1.07 ± 0.012 | 1.09 ± 0.038 | 1.05 ± 0.031 |
| F5GXJ1 and related entries (UniProt O75251) | 0.936 ± 0.064 | 0.848 ± 0.074 | 1.01 ± 0.088 | 1.02 ± 0.1 | 1.03 ± 0.14 | 1.01 ± 0.11 |
| E9PJD7 and related entries (UniProt P0DTL6) | 0.969 ± 0.023 | 0.968 ± 0.022 | 0.992 ± 0.015 | 1.01 ± 0.041 | 1.02 ± 0.028 | 0.981 ± 0.024 |
| F5H5P4 and related entries (UniProt P15498) | 0.969 ± 0.029 | 0.902 ± 0.081 | 0.973 ± 0.017 | 0.964 ± 0.03 | 0.984 ± 0.017 | 0.923 ± 0.048 |
| E9PJB9 and related entries (UniProt Q9Y315) | 0.926 ± 0.051 | 0.936 ± 0.077 | 0.901 ± 0.084 | 0.963 ± 0.041 | 0.927 ± 0.052 | 0.951 ± 0.13 |
| F6T1Q0 and related entries (UniProt Q6L8Q7) | 0.978 ± 0.033 | 0.888 ± 0.096 | 0.935 ± 0.029 | 0.908 ± 0.02 | 0.924 ± 0.029 | 0.877 ± 0.033 |
| E9PF18 and related entries (UniProt Q16836) | 0.996 ± 0.02 | 0.99 ± 0.02 | 0.961 ± 0.024 | 1.01 ± 0.039 | 1.01 ± 0.043 | 1 ± 0.059 |
| E9PJ81 and related entries (UniProt Q04323) | 0.991 ± 0.016 | 1.03 ± 0.024 | 0.985 ± 0.052 | 0.977 ± 0.053 | 0.99 ± 0.023 | 0.977 ± 0.041 |
| E7ET07 and related entries (UniProt Q9NXR8) | 1.023 ± 0.0073 | 1.02 ± 0.013 | 0.995 ± 0.021 | 1.01 ± 0.0076 | 1.03 ± 0.029 | 1.008 ± 0.0054 |
| F8VTV8 and related entries (UniProt P11802) | 0.979 ± 0.047 | 0.987 ± 0.033 | 0.9901 ± 0.0058 | 0.976 ± 0.043 | 1 ± 0.029 | 0.967 ± 0.062 |
| G3V3G9 (UniProt P40855) | 0.971 ± 0.014 | 0.934 ± 0.057 | 0.9499 ± 0.0071 | 0.971 ± 0.018 | 0.975 ± 0.018 | 0.971 ± 0.018 |
| E9PLV1 and related entries (UniProt Q9NQV6) | 1 ± 0.012 | 0.963 ± 0.055 | 0.9952 ± 0.0059 | 0.989 ± 0.021 | 1 ± 0.034 | 0.98 ± 0.023 |
| F8VQE1 and related entries (UniProt Q9UHB6) | 1.17 ± 0.073 | 1.28 ± 0.2 | 1.33 ± 0.12 | 1.39 ± 0.18 | 1.37 ± 0.17 | 1.58 ± 0.21 |
| E9PG15 and related entries (UniProt P27348) | 0.984 ± 0.076 | 1.09 ± 0.13 | 0.991 ± 0.073 | 0.983 ± 0.085 | 0.973 ± 0.078 | 0.98 ± 0.12 |
| E7EUU4 and related entries (UniProt Q04637) | 1.06 ± 0.036 | 1.12 ± 0.039 | 1.12 ± 0.045 | 1.14 ± 0.063 | 1.15 ± 0.039 | 1.17 ± 0.056 |
| E9PAV3 and related entries (UniProt Q13765+H0YHX9+F8VZJ2+E9PAV3) | 0.971 ± 0.054 | 1.02 ± 0.084 | 1.02 ± 0.06 | 1.11 ± 0.13 | 1.12 ± 0.066 | 1.25 ± 0.083 |
| F8VXU5 and related entries (UniProt Q9UBQ0) | 0.93 ± 0.037 | 0.853 ± 0.058 | 0.901 ± 0.035 | 0.986 ± 0.071 | 1 ± 0.038 | 0.95 ± 0.047 |
| E7EN32 and related entries (UniProt O00255) | 1.06 ± 0.017 | 1.1 ± 0.024 | 1.16 ± 0.036 | 1.25 ± 0.03 | 1.25 ± 0.047 | 1.31 ± 0.026 |
| E9PPN1 and related entries (UniProt Q8WW01) | 0.997 ± 0.013 | 0.978 ± 0.049 | 0.974 ± 0.037 | 0.996 ± 0.021 | 0.991 ± 0.043 | 0.99 ± 0.039 |
| E9PJQ6 and related entries (UniProt Q8IUX1) | 1.05 ± 0.013 | 1.05 ± 0.019 | 1.031 ± 0.0095 | 1 ± 0.035 | 1 ± 0.014 | 1 ± 0.015 |
| E9PK26 and related entries (UniProt Q9NRS6) | 0.977 ± 0.02 | 0.96 ± 0.034 | 0.998 ± 0.024 | 0.967 ± 0.028 | 1 ± 0.025 | 0.984 ± 0.029 |
| F8WEA6 and related entries (UniProt O75439) | 1.01 ± 0.032 | 0.994 ± 0.05 | 0.998 ± 0.022 | 0.99 ± 0.021 | 0.991 ± 0.02 | 0.99 ± 0.057 |
| E9PQY3 and related entries (UniProt P11117) | 1.01 ± 0.017 | 1.04 ± 0.057 | 0.99 ± 0.038 | 0.984 ± 0.046 | 0.985 ± 0.025 | 0.961 ± 0.047 |
| E9PK61 and related entries (UniProt O14681) | 0.955 ± 0.027 | 0.925 ± 0.037 | 0.995 ± 0.068 | 1.05 ± 0.087 | 1.1 ± 0.041 | 1.09 ± 0.074 |
| F8WCF6 and related entries (UniProt P59998) | 0.968 ± 0.014 | 0.891 ± 0.053 | 0.917 ± 0.021 | 0.914 ± 0.02 | 0.951 ± 0.046 | 0.878 ± 0.024 |
| E9PDP5 and related entries (UniProt Q8IWZ3) | 1.03 ± 0.037 | 1.06 ± 0.043 | 1.05 ± 0.072 | 1.02 ± 0.051 | 0.977 ± 0.051 | 0.997 ± 0.045 |
| F8WAE6 and related entries (UniProt Q86YW9) | 0.957 ± 0.019 | 0.985 ± 0.019 | 0.9837 ± 0.0065 | 0.967 ± 0.027 | 0.984 ± 0.013 | 0.976 ± 0.02 |

2 consecutive entries out of the list so far, for reference:

| Target | NP40-soluble protein abundance (concentration: 1mM) | NP40-soluble protein abundance (concentration: 2mM) | NP40-soluble protein abundance (concentration: 4mM) | NP40-soluble protein abundance (concentration: 6mM) | NP40-soluble protein abundance (concentration: 8mM) | NP40-soluble protein abundance (concentration: 10mM) |
| --- | --- | --- | --- | --- | --- | --- |
| E5RJF8 and related entries (UniProt O15182) | 1.02 ± 0.019 | 1.02 ± 0.024 | 0.998 ± 0.011 | 0.9911 ± 0.0075 | 0.992 ± 0.015 | 1.01 ± 0.022 |
| E9PL57 and related entries (UniProt Q15843) | 0.955 ± 0.05 | 0.989 ± 0.007 | 0.881 ± 0.11 | 0.8854 ± 0.0082 | 0.885 ± 0.0097 | 0.812 ± 0.031 |
